Data taken from the supplement of paper PMC10849652.
Some of the results follow.

By UniProt entry, the sequences of proteins in these tests, tags left out. Where a name states a change or a piece, a line headed by the entry shows the natural chain unless it says otherwise.
UniProt P15056, whole entry, looked up: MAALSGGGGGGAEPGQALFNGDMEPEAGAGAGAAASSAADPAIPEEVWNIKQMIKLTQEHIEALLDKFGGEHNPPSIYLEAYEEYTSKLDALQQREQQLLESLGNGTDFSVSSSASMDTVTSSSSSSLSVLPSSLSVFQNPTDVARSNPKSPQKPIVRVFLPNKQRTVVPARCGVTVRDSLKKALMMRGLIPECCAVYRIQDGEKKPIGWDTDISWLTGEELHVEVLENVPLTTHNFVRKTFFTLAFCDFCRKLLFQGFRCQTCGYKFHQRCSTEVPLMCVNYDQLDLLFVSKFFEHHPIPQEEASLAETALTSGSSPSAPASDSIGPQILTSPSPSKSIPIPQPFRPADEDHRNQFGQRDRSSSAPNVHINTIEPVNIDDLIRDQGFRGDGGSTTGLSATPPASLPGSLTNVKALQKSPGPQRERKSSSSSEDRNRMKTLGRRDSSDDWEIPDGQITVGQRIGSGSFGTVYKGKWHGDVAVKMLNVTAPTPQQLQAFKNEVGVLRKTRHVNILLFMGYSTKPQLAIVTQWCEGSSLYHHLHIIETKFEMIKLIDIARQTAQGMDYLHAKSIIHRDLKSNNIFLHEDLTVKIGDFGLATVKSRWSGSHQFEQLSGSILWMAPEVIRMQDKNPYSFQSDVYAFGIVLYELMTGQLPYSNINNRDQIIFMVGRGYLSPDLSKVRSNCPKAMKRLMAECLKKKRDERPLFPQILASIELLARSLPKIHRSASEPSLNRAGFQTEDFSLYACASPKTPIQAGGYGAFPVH
UniProt O60238, whole entry, looked up: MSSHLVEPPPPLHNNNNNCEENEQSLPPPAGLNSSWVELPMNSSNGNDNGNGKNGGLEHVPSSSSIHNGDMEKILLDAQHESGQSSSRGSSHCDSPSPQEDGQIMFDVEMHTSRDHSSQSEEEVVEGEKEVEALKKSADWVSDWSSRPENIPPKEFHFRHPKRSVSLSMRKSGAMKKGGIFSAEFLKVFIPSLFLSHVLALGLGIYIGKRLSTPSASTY
UniProt Q96GD4, whole entry, looked up: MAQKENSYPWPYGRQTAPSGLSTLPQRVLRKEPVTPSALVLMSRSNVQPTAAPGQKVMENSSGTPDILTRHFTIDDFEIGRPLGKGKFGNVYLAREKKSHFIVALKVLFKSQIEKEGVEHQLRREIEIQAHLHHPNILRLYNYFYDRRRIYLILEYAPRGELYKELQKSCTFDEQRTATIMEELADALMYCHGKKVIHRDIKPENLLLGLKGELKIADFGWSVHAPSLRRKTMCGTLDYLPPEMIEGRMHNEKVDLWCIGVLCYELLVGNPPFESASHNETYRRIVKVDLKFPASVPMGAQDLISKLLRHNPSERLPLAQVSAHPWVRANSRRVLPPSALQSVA
UniProt Q93088: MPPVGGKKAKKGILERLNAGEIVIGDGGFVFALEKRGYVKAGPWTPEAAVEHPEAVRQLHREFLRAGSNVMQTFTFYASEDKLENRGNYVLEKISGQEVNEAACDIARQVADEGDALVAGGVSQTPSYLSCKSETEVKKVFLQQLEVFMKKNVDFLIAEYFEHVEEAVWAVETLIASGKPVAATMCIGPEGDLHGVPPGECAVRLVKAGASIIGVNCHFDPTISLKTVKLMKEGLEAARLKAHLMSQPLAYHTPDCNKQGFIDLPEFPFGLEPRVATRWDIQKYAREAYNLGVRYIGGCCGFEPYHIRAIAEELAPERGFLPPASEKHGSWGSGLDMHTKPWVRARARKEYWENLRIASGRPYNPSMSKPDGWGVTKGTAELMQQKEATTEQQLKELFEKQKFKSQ
UniProt Q9UIG0: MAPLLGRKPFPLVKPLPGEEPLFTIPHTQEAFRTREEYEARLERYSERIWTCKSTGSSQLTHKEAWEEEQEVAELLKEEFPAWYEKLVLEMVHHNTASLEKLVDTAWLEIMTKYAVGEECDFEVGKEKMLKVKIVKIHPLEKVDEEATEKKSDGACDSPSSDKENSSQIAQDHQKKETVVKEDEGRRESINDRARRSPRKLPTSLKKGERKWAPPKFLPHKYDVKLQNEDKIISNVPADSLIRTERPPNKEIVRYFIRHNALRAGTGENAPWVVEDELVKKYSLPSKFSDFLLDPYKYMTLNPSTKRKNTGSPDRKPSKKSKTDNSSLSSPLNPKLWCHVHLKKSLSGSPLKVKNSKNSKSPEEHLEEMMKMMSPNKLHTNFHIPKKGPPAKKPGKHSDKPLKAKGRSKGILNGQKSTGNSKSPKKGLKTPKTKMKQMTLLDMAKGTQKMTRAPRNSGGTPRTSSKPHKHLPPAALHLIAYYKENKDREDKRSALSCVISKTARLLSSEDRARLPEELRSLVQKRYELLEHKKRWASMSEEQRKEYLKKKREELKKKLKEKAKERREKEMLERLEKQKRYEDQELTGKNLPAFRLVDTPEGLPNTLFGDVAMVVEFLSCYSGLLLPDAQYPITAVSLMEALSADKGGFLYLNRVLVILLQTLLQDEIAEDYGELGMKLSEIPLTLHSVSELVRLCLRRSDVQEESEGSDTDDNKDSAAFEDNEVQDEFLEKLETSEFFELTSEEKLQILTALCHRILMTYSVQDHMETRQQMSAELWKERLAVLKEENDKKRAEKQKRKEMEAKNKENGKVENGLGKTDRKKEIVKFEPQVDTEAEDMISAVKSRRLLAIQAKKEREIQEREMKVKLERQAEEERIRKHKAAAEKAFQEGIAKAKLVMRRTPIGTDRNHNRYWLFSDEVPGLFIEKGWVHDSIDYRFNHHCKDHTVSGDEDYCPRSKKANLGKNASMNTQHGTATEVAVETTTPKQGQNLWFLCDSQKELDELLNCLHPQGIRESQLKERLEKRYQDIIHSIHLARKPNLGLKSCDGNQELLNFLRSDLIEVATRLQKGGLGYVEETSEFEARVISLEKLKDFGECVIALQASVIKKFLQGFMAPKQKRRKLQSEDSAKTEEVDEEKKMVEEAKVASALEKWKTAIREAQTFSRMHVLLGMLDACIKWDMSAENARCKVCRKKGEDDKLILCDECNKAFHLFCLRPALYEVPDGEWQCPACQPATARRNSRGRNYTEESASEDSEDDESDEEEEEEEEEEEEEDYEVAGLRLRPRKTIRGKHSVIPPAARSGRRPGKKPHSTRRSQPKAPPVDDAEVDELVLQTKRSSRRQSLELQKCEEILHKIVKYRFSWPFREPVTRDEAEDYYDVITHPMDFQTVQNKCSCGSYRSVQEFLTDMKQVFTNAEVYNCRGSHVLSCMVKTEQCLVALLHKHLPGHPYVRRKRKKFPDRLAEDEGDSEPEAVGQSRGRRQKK
UniProt O15169, whole entry, looked up: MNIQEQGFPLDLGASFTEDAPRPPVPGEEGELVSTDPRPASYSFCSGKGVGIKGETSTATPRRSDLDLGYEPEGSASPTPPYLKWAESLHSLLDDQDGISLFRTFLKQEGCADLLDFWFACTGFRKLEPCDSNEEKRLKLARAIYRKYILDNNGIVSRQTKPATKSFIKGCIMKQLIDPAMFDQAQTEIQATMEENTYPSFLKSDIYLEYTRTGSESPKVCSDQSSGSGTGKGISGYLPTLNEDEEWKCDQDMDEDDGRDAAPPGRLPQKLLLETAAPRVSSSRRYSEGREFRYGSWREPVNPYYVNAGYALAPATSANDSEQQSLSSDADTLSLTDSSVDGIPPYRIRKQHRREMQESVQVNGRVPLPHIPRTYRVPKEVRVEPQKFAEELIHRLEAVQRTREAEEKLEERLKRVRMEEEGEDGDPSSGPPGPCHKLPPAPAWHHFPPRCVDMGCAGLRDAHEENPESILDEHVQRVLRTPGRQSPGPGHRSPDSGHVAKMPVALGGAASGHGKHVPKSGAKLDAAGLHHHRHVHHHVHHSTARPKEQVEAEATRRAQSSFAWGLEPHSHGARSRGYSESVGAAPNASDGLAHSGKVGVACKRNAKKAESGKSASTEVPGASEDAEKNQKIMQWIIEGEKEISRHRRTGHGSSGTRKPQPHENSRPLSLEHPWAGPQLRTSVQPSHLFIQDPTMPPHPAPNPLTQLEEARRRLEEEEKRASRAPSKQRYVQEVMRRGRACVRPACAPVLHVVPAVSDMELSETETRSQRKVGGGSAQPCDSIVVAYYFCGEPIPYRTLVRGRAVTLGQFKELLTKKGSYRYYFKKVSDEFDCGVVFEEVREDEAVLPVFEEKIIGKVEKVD
UniProt Q96IK1: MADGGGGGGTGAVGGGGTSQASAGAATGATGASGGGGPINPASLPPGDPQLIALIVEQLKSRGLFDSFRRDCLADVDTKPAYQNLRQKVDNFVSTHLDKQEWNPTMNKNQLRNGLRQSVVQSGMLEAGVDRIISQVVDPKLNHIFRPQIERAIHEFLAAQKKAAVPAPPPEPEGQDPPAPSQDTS
UniProt O00512: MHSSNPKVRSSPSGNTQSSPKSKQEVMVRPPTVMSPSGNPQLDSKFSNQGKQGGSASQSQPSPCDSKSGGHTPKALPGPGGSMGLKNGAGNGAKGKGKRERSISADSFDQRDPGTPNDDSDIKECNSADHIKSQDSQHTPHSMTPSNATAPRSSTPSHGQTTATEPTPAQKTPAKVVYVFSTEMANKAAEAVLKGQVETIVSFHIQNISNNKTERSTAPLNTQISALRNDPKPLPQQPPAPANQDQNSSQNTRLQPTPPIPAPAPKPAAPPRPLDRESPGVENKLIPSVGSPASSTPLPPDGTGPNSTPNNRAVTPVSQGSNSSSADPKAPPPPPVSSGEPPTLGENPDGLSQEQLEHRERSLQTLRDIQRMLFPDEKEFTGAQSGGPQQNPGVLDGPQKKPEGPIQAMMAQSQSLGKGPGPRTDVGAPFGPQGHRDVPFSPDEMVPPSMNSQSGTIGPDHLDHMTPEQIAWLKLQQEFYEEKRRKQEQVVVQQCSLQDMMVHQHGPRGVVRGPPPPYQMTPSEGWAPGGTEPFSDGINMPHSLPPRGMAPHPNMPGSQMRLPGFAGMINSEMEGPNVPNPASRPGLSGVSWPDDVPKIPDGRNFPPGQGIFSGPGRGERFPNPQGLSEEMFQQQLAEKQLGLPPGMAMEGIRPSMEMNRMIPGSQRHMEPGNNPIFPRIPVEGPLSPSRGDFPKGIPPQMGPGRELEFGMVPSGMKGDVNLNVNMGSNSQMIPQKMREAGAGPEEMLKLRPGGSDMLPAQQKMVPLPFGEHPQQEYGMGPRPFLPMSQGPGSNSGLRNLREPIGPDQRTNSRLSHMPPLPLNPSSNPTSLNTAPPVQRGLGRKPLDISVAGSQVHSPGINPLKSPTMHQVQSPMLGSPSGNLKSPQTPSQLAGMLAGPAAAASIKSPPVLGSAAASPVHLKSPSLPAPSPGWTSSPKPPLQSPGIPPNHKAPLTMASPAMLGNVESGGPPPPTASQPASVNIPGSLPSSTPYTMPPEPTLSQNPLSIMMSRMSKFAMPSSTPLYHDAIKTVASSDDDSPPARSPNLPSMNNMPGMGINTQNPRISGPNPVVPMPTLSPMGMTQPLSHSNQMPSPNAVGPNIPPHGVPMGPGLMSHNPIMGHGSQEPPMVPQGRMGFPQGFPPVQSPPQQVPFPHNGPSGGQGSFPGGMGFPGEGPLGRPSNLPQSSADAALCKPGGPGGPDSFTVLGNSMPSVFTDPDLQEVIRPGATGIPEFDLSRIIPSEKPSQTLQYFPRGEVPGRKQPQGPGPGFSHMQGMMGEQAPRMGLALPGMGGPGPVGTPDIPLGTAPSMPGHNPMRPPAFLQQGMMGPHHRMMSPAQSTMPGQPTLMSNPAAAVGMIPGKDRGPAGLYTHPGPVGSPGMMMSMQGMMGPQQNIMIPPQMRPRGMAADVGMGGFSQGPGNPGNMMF
UniProt Q8TDL5: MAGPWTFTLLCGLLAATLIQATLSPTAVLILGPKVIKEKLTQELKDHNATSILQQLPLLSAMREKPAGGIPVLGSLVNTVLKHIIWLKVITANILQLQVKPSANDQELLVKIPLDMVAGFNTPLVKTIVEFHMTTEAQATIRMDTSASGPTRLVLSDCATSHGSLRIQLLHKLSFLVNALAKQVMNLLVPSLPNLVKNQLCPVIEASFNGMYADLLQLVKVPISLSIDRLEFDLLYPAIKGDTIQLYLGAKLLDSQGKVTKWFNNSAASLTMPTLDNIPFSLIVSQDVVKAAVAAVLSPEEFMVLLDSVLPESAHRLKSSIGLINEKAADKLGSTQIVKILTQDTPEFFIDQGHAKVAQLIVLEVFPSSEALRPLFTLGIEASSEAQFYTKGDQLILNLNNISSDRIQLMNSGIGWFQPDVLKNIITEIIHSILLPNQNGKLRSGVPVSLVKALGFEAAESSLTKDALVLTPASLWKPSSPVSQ
UniProt Q9BQE9, whole entry, looked up: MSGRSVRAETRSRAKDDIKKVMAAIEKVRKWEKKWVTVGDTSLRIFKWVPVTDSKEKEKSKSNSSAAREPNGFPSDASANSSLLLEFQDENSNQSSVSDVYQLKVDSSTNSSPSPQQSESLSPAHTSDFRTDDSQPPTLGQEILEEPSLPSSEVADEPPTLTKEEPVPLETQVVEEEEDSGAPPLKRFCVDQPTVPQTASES

Tests used:
Test in all cases: log2 fold change, soluble protein after heating vs DMSO (PISA); higher = thermal stabilisation; K562 cells, 10 uM, 30 min; active = over 0.2 and 3.5 SD of the protein, either way, in both replicates (recomputed)
bafetinib = compound: Cc1ccc(NC(=O)c2ccc(CN3CC[C@H](N(C)C)C3)c(C(F)(F)F)c2)cc1Nc1nccc(-c2cncnc2)n1 [bafetinib]
Summary of the method: (§1)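 K562 cells at 2×10^6 cells/mL were exposed to 10 μM compound for 30 min, then aliquots were heated for 3 min across 48°C-58°C, pooled, and extracted in PBS containing 0.5% NP-40 at 4°C. The supernatant after 21,000xg for 90 min was taken as soluble protein and measured by TMTpro 16plex LC-MS/MS with channel sums equalised. Thermal stability is reported relative to control samples, with values from duplicates. Fold changes are given on a log2 scale.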

[1] = compound: Cc1cccc(CC(=O)N2CCc3c2ccc(-c2cn(C)c4ncnc(N)c24)c3F)n1
Summary of the method: as §1

dasatinib = compound: Cc1nc(Nc2ncc(C(=O)Nc3c(C)cccc3Cl)s2)cc(N2CCN(CCO)CC2)n1 [dasatinib]
Summary of the method: as §1

[2] = compound: Cn1cc(-c2ccc3c(c2)CCN3C(=O)Cc2cccc(C(F)(F)F)c2)c2c(N)ncnc21
Summary of the method: as §1

[3] = compound: Cn1cc(-c2ccc3nnc(C(F)(F)c4ccc5ncccc5c4)n3n2)cn1
Summary of the method: as §1

tipifarnib = compound: Cn1cncc1[C@@](N)(c1ccc(Cl)cc1)c1ccc2c(c1)c(-c1cccc(Cl)c1)cc(=O)n2C [tipifarnib]
Summary of the method: as §1

mubritinib = compound: FC(F)(F)c1ccc(/C=C/c2nc(COc3ccc(CCCCn4ccnn4)cc3)co2)cc1 [mubritinib]
Summary of the method: as §1

nilotinib = compound: Cc1cn(-c2cc(NC(=O)c3ccc(C)c(Nc4nccc(-c5cccnc5)n4)c3)cc(C(F)(F)F)c2)cn1 [nilotinib]
Summary of the method: as §1

[4] = compound: Cc1nc(Nc2n[nH]c3c2CN(C(=O)N[C@H](CN(C)C)c2ccccc2)C3(C)C)c2sccc2n1
Summary of the method: as §1

[5] = compound: Cc1ncc(-c2ccnc(Nc3ccc(S(C)(=O)=O)cc3)n2)n1C(C)C
Summary of the method: as §1

Measured: log2 fold change

BCR (UniProt P11274)
inactive: bafetinib 0.201 | [1] 0.014 | dasatinib 0.195 | [2] -0.149 | [3] -0.059 | tipifarnib -0.091 | mubritinib -0.072

AZI2 (UniProt Q9H6S1)
inactive: bafetinib -0.049 | nilotinib 0.179 | [4] 0.481 | [5] 0.099 | [3] 0.105

B3GNT5 (UniProt Q9BYG0)
inactive: bafetinib -0.053 | nilotinib 0.04 | [4] 0.064 | dasatinib 0.012 | [5] 0.077 | [2] -0.201 | mubritinib 0.054

BLOC1S6 (UniProt Q9UL45)
inactive: bafetinib 0.056 | nilotinib -0.066 | [4] -0.063 | dasatinib 0.003 | [5] 0.003 | [2] 0.068 | [3] 0.033 | tipifarnib -0.158 | mubritinib -0.053

AUH (UniProt Q13825)
inactive: bafetinib -0.102 | [1] 0.024 | dasatinib 0.145 | [2] -0.072 | [3] 0.007 | tipifarnib -0.011 | mubritinib 0.048

BCAR1 isoform 6 (UniProt P56945)
inactive: bafetinib 0.129 | [1] -0.007 | dasatinib -0.06 | [2] -0.117 | [3] 0.031 | tipifarnib 0.004

BRI3BP (UniProt Q8WY22)
inactive: bafetinib -0.009 | nilotinib 0.028 | [4] -0.013 | dasatinib -0.056 | [5] 0.016 | [2] -0.002 | [3] -0.069 | tipifarnib 0.031 | mubritinib -0.041

BLM (UniProt P54132)
inactive: bafetinib 0 | nilotinib 0.002 | [4] 0.049 | dasatinib -0.095 | [5] -0.035 | [2] 0.033 | [3] 0.019 | tipifarnib 0.04 | mubritinib 0.02

BCL7C isoform 2 (UniProt Q8WUZ0)
inactive: bafetinib -0.05 | nilotinib 0.049 | [4] 0.036 | [5] -0.074 | [2] -0.056 | mubritinib -0.007

BRAF (UniProt P15056)
inactive: bafetinib 0.067 | [1] 0.019 | [4] -0.099 | [5] -0.014 | [2] 0.03 | [3] 0.01 | tipifarnib -0.034 | mubritinib -0.059

BNIP3L (UniProt O60238)
inactive: nilotinib -0.052 | [4] 0.011 | dasatinib 0.025 | [5] -0.037 | [2] 0.073 | [3] 0.015 | mubritinib -0.011

BORCS8 (UniProt Q96FH0)
inactive: [3] -0.07

BCL2L11 (UniProt O43521)
inactive: [1] -0.088 | nilotinib 0.044 | [4] -0.068 | dasatinib 0.07 | [5] 0.049 | [2] 0.082 | [3] -0.22 | mubritinib -0.01

BCL7A isoform 2 (UniProt Q4VC05)
inactive: tipifarnib -0.027

AUNIP isoform 2 (UniProt Q9H7T9)
active: tipifarnib -0.844
inactive: dasatinib -0.284 | [2] -0.006

AURKAIP1 (UniProt Q9NWT8)
inactive: dasatinib 0.033 | [2] -0.296 | [3] -0.072 | mubritinib -0.041

AURKB isoform 5 (UniProt Q96GD4)
inactive: nilotinib -0.106 | [4] 0.859 | dasatinib 0.331 | [5] 0.371

BNIP2 (UniProt H7C096)
inactive: bafetinib -0.046 | mubritinib 0.099

ATRX (UniProt P46100)
inactive: [1] -0.147 | [2] -0.187

BFAR (UniProt Q9NZS9)
inactive: tipifarnib -0.101 | mubritinib 0.121

BHMT (UniProt Q93088)
inactive: dasatinib 0.035

BAZ1B (UniProt Q9UIG0)
inactive: [1] -0.112 | nilotinib -0.029 | [4] -0.16 | [5] -0.122 | [2] 0.004 | mubritinib 0.079

BRCA1 isoform 7 (UniProt P38398)
inactive: [3] 0.054 | tipifarnib 0.179 | mubritinib -0.163

BCL7C (UniProt Q8WUZ0)
inactive: mubritinib -0.707

BRAF, A0A2R8Y8E0
inactive: nilotinib -0.419 | [4] 0.112 | [5] -0.236 | [3] 0.052 | mubritinib 0.113

BET1L (UniProt Q9NYM9)
inactive: nilotinib 0.019 | [4] 0.086 | dasatinib 0 | [5] -0.027 | [2] 0.038 | [3] 0.033 | tipifarnib 0.045 | mubritinib 0.088

B3GALT6 (UniProt Q96L58)
inactive: [3] -0.054

BAP18 isoform 3 (UniProt Q8IXM2)
inactive: [1] -0.182 | mubritinib 0.117

BAIAP2 isoform 4 (UniProt Q9UQB8)
inactive: [2] -0.018

BIN1 (UniProt O00499)
inactive: mubritinib 0.098

AXIN1 (UniProt O15169)
inactive: [1] 0.016

BRMS1 (UniProt Q9HCU9)
inactive: [1] 0.029 | dasatinib 0.035 | mubritinib 0.179

BOD1 (UniProt Q96IK1)
inactive: [1] -0.099 | [3] 0.05 | mubritinib -0.066

AZIN1 (UniProt O14977)
inactive: [3] -0.018

Reprinted from the entries so far (two entries):
AXIN1 (UniProt O15169)
inactive: [1] 0.016

BRMS1 (UniProt Q9HCU9)
inactive: [1] 0.029 | dasatinib 0.035 | mubritinib 0.179

Further results

BCL9 (UniProt O00512)
inactive: [1] -0.011 | dasatinib 0.028 | [2] -0.161 | [3] 0.094 | tipifarnib 0.118

BPIFB1 (UniProt Q8TDL5)
inactive: nilotinib 1.77 | [4] -0.168 | [5] -0.411

BPNT1 (UniProt A6NF51)
inactive: bafetinib 0.16 | [3] -0.128 | mubritinib 0.143

BPTF (UniProt Q12830)
inactive: nilotinib 0.057 | [4] 0.076 | dasatinib -0.112 | [5] 0.361

BCL7B (UniProt Q9BQE9)
inactive: dasatinib -0.079 | [2] 0.115 | mubritinib -0.036

ATXN2 (UniProt F8W0B5)
inactive: [1] 0.029 | nilotinib 0.1 | [4] 0.053 | dasatinib -0.059 | [5] 0.024 | [2] 0.201 | [3] 0.17 | mubritinib 0.045

BLZF1 (UniProt Q9H2G9)
inactive: [2] -0.154

BCAS3 isoform 8 (UniProt Q9H6U6)
inactive: [1] 0.027 | dasatinib -0.225 | [2] 0.009 | tipifarnib -0.037

BAHD1 (UniProt Q8TBE0)
inactive: [1] -0.079 | nilotinib 0.082 | [4] -0.055 | [5] -0.049 | tipifarnib 0.112 | mubritinib -0.019
